The text below walks through data of publication PMC7819943, “Rice protein-binding microarrays: a tool to detect cis-acting elements near promoter regions in rice”.

The other results are listed elsewhere or left out.

The target in this assay is T1, OsSMF1 (Oryza sativa, UniProt Q6ZLB0 1-436).
T1 sequence: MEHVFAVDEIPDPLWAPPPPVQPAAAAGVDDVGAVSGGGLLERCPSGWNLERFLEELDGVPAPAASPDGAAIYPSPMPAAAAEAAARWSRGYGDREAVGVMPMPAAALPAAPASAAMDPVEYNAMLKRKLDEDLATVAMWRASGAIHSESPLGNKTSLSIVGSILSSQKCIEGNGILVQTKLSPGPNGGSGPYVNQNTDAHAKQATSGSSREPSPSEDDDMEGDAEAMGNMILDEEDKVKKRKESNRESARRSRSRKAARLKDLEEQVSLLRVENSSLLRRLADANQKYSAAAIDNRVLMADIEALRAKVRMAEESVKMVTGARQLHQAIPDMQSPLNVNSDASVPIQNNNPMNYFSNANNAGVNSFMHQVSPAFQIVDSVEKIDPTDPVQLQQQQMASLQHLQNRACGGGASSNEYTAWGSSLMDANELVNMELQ
Put plainly: protein-binding microarray (RPBM); PBS, 2% BSA, 51.3 ng/ul salmon testes DNA, 50 uM zinc acetate, 200 nM TF, 25 C, 1 h; high values mean tight binding. The conditions noted are these: protein: recombinant; tags: N-terminal polyhistidine and DsRed monomer fusion (pET32a); chain copies: 2; label: CyDye5-dUTP incorporated in the synthesized complementary strand; 3' TTTTT single-stranded linker to array surface; dsDNA, one strand shown. The gist of the method: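 Ni–NTA purification followed expression in E. coli BL21-CodonPlus of transcription factors fused N-terminally to a polyhistidine tag and DsRed. At 200 nM in PBS with 2% BSA, salmon testes DNA and 50 µM zinc acetate, the protein was incubated for 1 h at 25 °C with a custom Agilent array that had been primer-extended with Cy5-dUTP and blocked with 2% BSA. After washing, the array was read on an Axon 4000B scanner. The binding signal is per-feature fluorescence intensity in arbitrary units.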
Take “TGGATGACAAGGTGGGCCCACACGAAAGGCGAGTGCGTGTCGGAGTCACCTAGTGCAG”: the binding signal is 3430 fluorescence intensity (a.u.). Regarding “CAAGTGAGTAATCATAGTCATTGCGAGTAGTGCATTCAGTCGGAGTCACCTAGTGCAG”, the binding signal was 3340 fluorescence intensity (a.u.).

As to “CTAGTTTACATCTGCAATGTCATGATTTATTTATGGAATACGGAGTCACCTAGTGCAG”, the binding signal is 19500 fluorescence intensity (a.u.). Then “CCACGCGCCCCTCCACGTGGCTCCTGGCCCACCACCAGATCGGAGTCACCTAGTGCAG”, with 10600 fluorescence intensity (a.u.). Regarding “ACGGGTGTGCCCCACCAGATGTGGGCCACCCTATATTTATCGGAGTCACCTAGTGCAG”, the binding signal was 3290 fluorescence intensity (a.u.).

“AATGAGACGGAGGGAGTAATTTATTTACTCGTTAGTATATCGGAGTCACCTAGTGCAG”: the binding signal was 36100 fluorescence intensity (a.u.).

In the case of “TCCTGTGCCTCTCTCATGGTGTGGGTGTCTGTGTCTTTGACGGAGTCACCTAGTGCAG”, the binding signal was 3350 fluorescence intensity (a.u.). For the sequence “TCTTATCCGTAACCCTGACAGAGTGGATTACCAGATTATACGGAGTCACCTAGTGCAG”, the binding signal is 3470 fluorescence intensity (a.u.). The figure for “CAATGGCAGACTGTGCACTGCACCATGAGCTTTTAAATTTCGGAGTCACCTAGTGCAG” is 3450 fluorescence intensity (a.u.).

Take “AAATGTCATCTGATCACACCTATTAAAATGATGCGACAAACGGAGTCACCTAGTGCAG”: the binding signal is 6280 fluorescence intensity (a.u.).

For the sequence “TCAATTGAAGGTTGAGGATGAGACGTGGAAATTAATTACTCGGAGTCACCTAGTGCAG”, the binding signal was 3700 fluorescence intensity (a.u.). Regarding “GTTGGTTTCAAGTCTGATGGGAAAATTACAGCCTTGCACCCGGAGTCACCTAGTGCAG”, the binding signal was 15100 fluorescence intensity (a.u.). For “ACTAGTGACATAAGATCGGCCCCACCTGTCAGTTGCATGGCGGAGTCACCTAGTGCAG”, the binding signal is 4260 fluorescence intensity (a.u.). As for “GAAGTAGTCGTGGCCGAACATGACGCCGCCGGGGCGGAGCCGGAGTCACCTAGTGCAG”, the binding signal is 4630 fluorescence intensity (a.u.). In the case of “ATATATTTTGGTTGTGTAGTTTCACAAAACCACACTATCGCGGAGTCACCTAGTGCAG”, the binding signal was 3470 fluorescence intensity (a.u.). Then “ATGGATTTGTCACGGATCCAAATTCAGTTAGCCCATTAGGCGGAGTCACCTAGTGCAG”, with 3330 fluorescence intensity (a.u.); and “AGGGGAGGAGAAAGAGGTTGGTGACACATGGGTCCCACTTCGGAGTCACCTAGTGCAG”, with 6790 fluorescence intensity (a.u.).

As to “GAAGGGGATGACACATCTGCCACTGGCGTGTGGGGTCCCCCGGAGTCACCTAGTGCAG”, the binding signal was 5320 fluorescence intensity (a.u.).

As to “TCTTCTCTCGTCAAATTAACAGCCTATCGATGATCGATTACGGAGTCACCTAGTGCAG”, the binding signal is 3420 fluorescence intensity (a.u.).

With “TTGGTCTGTTGGTGGCCGGGGCGCGGGCGCGCTTACCTGTCGGAGTCACCTAGTGCAG”, the binding signal is 4300 fluorescence intensity (a.u.). “AAAACAAAGACACGCGCTGTAGTGGACACACGCAAGCAGTCGGAGTCACCTAGTGCAG”: the binding signal is 5160 fluorescence intensity (a.u.). The figure for “TAGCAGAGATGCTAAAGTAGTAGAGATGACGTCGGGCTTCCGGAGTCACCTAGTGCAG” is 5570 fluorescence intensity (a.u.); for “CAAATGATTCCACTTGTCATTTGCATATGAGTGATATGTGCGGAGTCACCTAGTGCAG” it is 3910 fluorescence intensity (a.u.); for “CAAAATATGCCTTTCCCGGTGGCTAGACTAACCGCTAGCGCGGAGTCACCTAGTGCAG” it is 3220 fluorescence intensity (a.u.). Then “GAGATTTAGGTGACAGAATAAGACGTGGCTGGACGTAAGACGGAGTCACCTAGTGCAG”, with 3950 fluorescence intensity (a.u.); and “CACTGGAAGCGGGGTCACTGCTCATTCAGATAGGTTCAAACGGAGTCACCTAGTGCAG”, with 34400 fluorescence intensity (a.u.); and “GTTAGCGATTGCCAGAGCGCGCGTCACCGCTTGCTGAGGCCGGAGTCACCTAGTGCAG”, with 7120 fluorescence intensity (a.u.). Turning to “GTTACATCAACGTGATGCGTCAGCCTCAGGCTGGGAATCACGGAGTCACCTAGTGCAG”, the binding signal is 6140 fluorescence intensity (a.u.). For “CACTCTAATAACGTGTCGTGTTCTTCATGCTGAAATGTCTCGGAGTCACCTAGTGCAG”, the binding signal is 4330 fluorescence intensity (a.u.). Consider “CTAATCCTTTTGGACATTACGTGGCTGCTATCTGAACCACCGGAGTCACCTAGTGCAG”, for which the binding signal is 10100 fluorescence intensity (a.u.). The figure for “GCCCATCTCTACGCCAATCCAACGTGCACGCCACCATGTGCGGAGTCACCTAGTGCAG” is 4280 fluorescence intensity (a.u.); for “AGGGGTCGTCGTCATCGCCAGCGTGGCACGCCTTCCAGCCCGGAGTCACCTAGTGCAG” it is 9200 fluorescence intensity (a.u.); for “ATAATTTGGTGGGCGCACCACTAACGTGTATATTTAGTGACGGAGTCACCTAGTGCAG” it is 4090 fluorescence intensity (a.u.). “CCTGCATTTTCAGTAATCTGAACATGACAACATACTTGTGCGGAGTCACCTAGTGCAG”: the binding signal was 3200 fluorescence intensity (a.u.). As to “GTACGAGTCATGACGGCCAGCTCATCTTATCTTAAAACAACGGAGTCACCTAGTGCAG”, the binding signal was 3510 fluorescence intensity (a.u.). “CACTGTACATGGTCAAATATAATTTCGTGTCAGTCACCTTCGGAGTCACCTAGTGCAG”: the binding signal is 4150 fluorescence intensity (a.u.). “GCCGGCCGCGCGCCGCCGCCGACCACGCGTCCATGAACCGCGGAGTCACCTAGTGCAG”: the binding signal was 3550 fluorescence intensity (a.u.). In the case of “AAGAGGGAGAATGAATGGTTAGAGTTTAAATGTGTCTTTTCGGAGTCACCTAGTGCAG”, the binding signal is 22400 fluorescence intensity (a.u.). For the sequence “CGGTCGACCCGCCGTCTGCCACGTCAGCTTGCCGCCCCAGCGGAGTCACCTAGTGCAG”, the binding signal was 22500 fluorescence intensity (a.u.). “AAAACGGCCTCCCCTAATCTTGCGTGTCCGGCCAATTGCACGGAGTCACCTAGTGCAG”: the binding signal was 4660 fluorescence intensity (a.u.). As to “TAAACAAACACAGTTGACATGTGTTCCTGTCATGCAGGCCCGGAGTCACCTAGTGCAG”, the binding signal was 4050 fluorescence intensity (a.u.). On to “GAACCCTCACTCTGTGCGTCTACTTGGCAAGGGGCTCGTGCGGAGTCACCTAGTGCAG”, for which the binding signal is 3260 fluorescence intensity (a.u.).
